PubChem BioAssay AID504793, Drosophila RNAi Screening Center – 2011
The screen tested about 23,000 reagents; this is a random part of those that have a named target and a result. Of all reagents, 62 (0.27%) got an active call. 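Calls come from follow-up tests whose scores are not deposited, so confirmed genes may have low counts here; counts are not normalised per plate.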 Raw values vary from plate to plate and are shown uncorrected. Names joined by + are all predicted targets of the reagent.

Screen: 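Genes required for cells to halt at G2/M after double-strand DNA breaks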 (primary screen)
Cells: Drosophila S2R+ cells
Reagents: long dsRNA against Drosophila genes, about 0.25 µg dsRNA per well
Duration: 4 days of dsRNA, then 4 hours of drug before read-out
Conditions: doxorubicin 0.5 µM for 4 hours to cause double-strand breaks, in cells also given a low, harmless dose of dsRNA against nbs to sensitise the assay
Detection: 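Per-well count of mitotic cells stained for phospho-histone H3 after doxorubicin exposure, used as mitotic index; counts are raw and not normalised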
Reading the numbers: mitotic cells: higher = more cells in mitosis, weaker G2 arrest
Call rule: 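a call needs confirmation in secondary tests, with other dsRNAs and a check of mitotic timing without damage, not just a high primary count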
Calls: active = confirmed in follow-up tests; inactive = not confirmed

target	DRSC id	mitotic cells, replicate 1	mitotic cells, replicate 2	call
Rab9Db + Rab9D + Rab9Fa + 1 more	DRSC17662	5		inactive
spn-B	DRSC17063	4		inactive
spn-B	DRSC26699	8		inactive
CG13045	DRSC09926	3		inactive
CG13045	DRSC25454			inactive
CG32772	DRSC18406	2		inactive
CG32772	DRSC22349	4		inactive
Act88F	DRSC14105	7		inactive
Act88F	DRSC25009	2		inactive
CG18808	DRSC08539	7		inactive
KP78b + KP78a	DRSC23338	22		inactive
KP78b + KP78a	DRSC23341	13		inactive
KP78b + KP78a	DRSC29265	3		inactive
CG13155	DRSC06280	5		inactive
CG1024	DRSC12496	3		inactive
CG34129	DRSC15960	17		inactive
CG13300	DRSC09974	3		inactive
CG13300	DRSC25081	5		inactive
Cyp6a18	DRSC16632	13		inactive
Hpd	DRSC11670	6		inactive
Hpd	DRSC27639	6		inactive
CG7550	DRSC10875	7		inactive
hbt	DRSC23270	2		inactive
Hrs	DRSC00549	5		inactive
Hrs	DRSC27741	3		inactive
Golgin104	DRSC10459	15		inactive
Golgin104	DRSC26351			inactive
CG13833	DRSC14683	5		inactive
CG9143	DRSC07338	3		inactive
qless	DRSC15103	16		inactive
qless	DRSC15507	6		inactive
sip1	DRSC03609	4		inactive
sip1	DRSC22648	4		inactive
sip1	DRSC27781	2		inactive
Cfp1	DRSC18128	12		inactive
CG31437	DRSC13711	24	15	inactive
CG4151	DRSC18351	10		inactive
Prp19	DRSC07434	5		inactive
Prp19	DRSC23905	2		inactive
CG14014	DRSC02345	52		inactive
Axud1	DRSC00270	4		inactive
Ada	DRSC14463	5		inactive
CG34309	DRSC14838	5		inactive
tst	DRSC14212	5		inactive
CG32085	DRSC10138	4		inactive
CG32085	DRSC10139	5		inactive
CG32085	DRSC10576	5		inactive
aln	DRSC08240	1		inactive
CG15445	DRSC20517	6		inactive
rdo	DRSC02452	2		inactive
rdo	DRSC25572	3		inactive
CG30349	DRSC06421	6		inactive
CG30349	DRSC06839	6		inactive
CG30349	DRSC28739	6		inactive
CG15124	DRSC06546	6		inactive
HP1D3csd	DRSC19548	4		inactive
d-cup	DRSC14846	13		inactive
CG10581	DRSC11623	3		inactive
pira	DRSC19494	11		inactive
Wdr62	DRSC00081	4		inactive
Wdr62	DRSC21913	9		inactive
CG1622	DRSC19745	1		inactive
CG1622	DRSC28342	12		inactive
Mipp1	DRSC11223	7		inactive
CG4025	DRSC18523	11		inactive
Rsf1	DRSC03423	4		inactive
Rsf1	DRSC21953	11		inactive
Rsf1	DRSC27444	3		inactive
CG31482	DRSC12582	6		inactive
ERR	DRSC10840	6		inactive
CG14453	DRSC11710	8	11	inactive
CG14453	DRSC23780	11		inactive
CG32053	DRSC10683	8		inactive
CG13252	DRSC11700	6		inactive
CG13252	DRSC27577	11		inactive
DIP-beta	DRSC20489	7		inactive
DIP-beta	DRSC20490	4		inactive
DIP-beta	DRSC20505	12		inactive
CG13332	DRSC06367	7		inactive
CG30413	DRSC04001	6		inactive
CG30413	DRSC29520	13		inactive
Sc2	DRSC08162	5		inactive
Sc2	DRSC26153	5		inactive
JMJD4	DRSC03025	2		inactive
JMJD4	DRSC25368	6		inactive
Ak6	DRSC07274	5		inactive
Ir11a	DRSC19699	12		inactive
Neb-cGP	DRSC17991	24		inactive
SWIP	DRSC19540	5		inactive
Tmep	DRSC08215	4		inactive
Tmep	DRSC26652	3		inactive
Ilp2	DRSC10968	1		inactive
Ilp2	DRSC29688	5		inactive
bowl	DRSC00805	10		inactive
bowl	DRSC28379	3		inactive
CG8188	DRSC20090	15		inactive
CG8188	DRSC27721	4		inactive
CG6294 + CG6299 + CG15642	DRSC19981	14		inactive
Rnf11	DRSC21574	6		inactive
Rnf11	DRSC27053	10		inactive
Rab8	DRSC11261	12		inactive
CG31683 + CG18858	DRSC02703	4		inactive
CG15199	DRSC19646	7		inactive
salm	DRSC03606	3		inactive
salm	DRSC29912	4		inactive
mRpL15	DRSC11771	5		inactive
mRpL15	DRSC24402	3		inactive
Elo68beta	DRSC09860	8		inactive
gwl	DRSC16305	16		inactive
Mpp6	DRSC03169	3		inactive
Mpp6	DRSC29734	6		inactive

Not a retest: an excerpt of the list.
target	DRSC id	mitotic cells, replicate 1	mitotic cells, replicate 2	call
Ilp2	DRSC10968	1		inactive
Ilp2	DRSC29688	5		inactive
bowl	DRSC00805	10		inactive
bowl	DRSC28379	3		inactive
CG8188	DRSC20090	15		inactive
CG8188	DRSC27721	4		inactive
CG6294 + CG6299 + CG15642	DRSC19981	14		inactive
Rnf11	DRSC21574	6		inactive
Rnf11	DRSC27053	10		inactive
Rab8	DRSC11261	12		inactive
